Experimental data as given in PubChem BioAssay AID2662 (National Center for Advancing Translational Sciences (NCATS), 2010).
The whole screen tested about 290,000 compounds, of which about 110 (0.038%) were called active. The shares of active, inactive and inconclusive entries below differ from those in the screen. Calls come from the whole dose curve; as a rule, active = well fitted inhibition curve with a large enough effect in the polarisation, with a control signal flat (not every such curve was filed as active); inconclusive = small, poorly fitted or top-dose-only effect, or effect the other way, or a change in a side signal; inactive = no such curve, though single readings can be large or run the other way; the % refers to the polarisation. Where the call is inconclusive, the potency comes from a doubtful curve fit. “Side channel” marks fits to a control or component signal instead of the main read-out.

Protein sequences, listed by entry. Tags and fused reporters are not part of them.
UniProt Q03164, whole entry, looked up: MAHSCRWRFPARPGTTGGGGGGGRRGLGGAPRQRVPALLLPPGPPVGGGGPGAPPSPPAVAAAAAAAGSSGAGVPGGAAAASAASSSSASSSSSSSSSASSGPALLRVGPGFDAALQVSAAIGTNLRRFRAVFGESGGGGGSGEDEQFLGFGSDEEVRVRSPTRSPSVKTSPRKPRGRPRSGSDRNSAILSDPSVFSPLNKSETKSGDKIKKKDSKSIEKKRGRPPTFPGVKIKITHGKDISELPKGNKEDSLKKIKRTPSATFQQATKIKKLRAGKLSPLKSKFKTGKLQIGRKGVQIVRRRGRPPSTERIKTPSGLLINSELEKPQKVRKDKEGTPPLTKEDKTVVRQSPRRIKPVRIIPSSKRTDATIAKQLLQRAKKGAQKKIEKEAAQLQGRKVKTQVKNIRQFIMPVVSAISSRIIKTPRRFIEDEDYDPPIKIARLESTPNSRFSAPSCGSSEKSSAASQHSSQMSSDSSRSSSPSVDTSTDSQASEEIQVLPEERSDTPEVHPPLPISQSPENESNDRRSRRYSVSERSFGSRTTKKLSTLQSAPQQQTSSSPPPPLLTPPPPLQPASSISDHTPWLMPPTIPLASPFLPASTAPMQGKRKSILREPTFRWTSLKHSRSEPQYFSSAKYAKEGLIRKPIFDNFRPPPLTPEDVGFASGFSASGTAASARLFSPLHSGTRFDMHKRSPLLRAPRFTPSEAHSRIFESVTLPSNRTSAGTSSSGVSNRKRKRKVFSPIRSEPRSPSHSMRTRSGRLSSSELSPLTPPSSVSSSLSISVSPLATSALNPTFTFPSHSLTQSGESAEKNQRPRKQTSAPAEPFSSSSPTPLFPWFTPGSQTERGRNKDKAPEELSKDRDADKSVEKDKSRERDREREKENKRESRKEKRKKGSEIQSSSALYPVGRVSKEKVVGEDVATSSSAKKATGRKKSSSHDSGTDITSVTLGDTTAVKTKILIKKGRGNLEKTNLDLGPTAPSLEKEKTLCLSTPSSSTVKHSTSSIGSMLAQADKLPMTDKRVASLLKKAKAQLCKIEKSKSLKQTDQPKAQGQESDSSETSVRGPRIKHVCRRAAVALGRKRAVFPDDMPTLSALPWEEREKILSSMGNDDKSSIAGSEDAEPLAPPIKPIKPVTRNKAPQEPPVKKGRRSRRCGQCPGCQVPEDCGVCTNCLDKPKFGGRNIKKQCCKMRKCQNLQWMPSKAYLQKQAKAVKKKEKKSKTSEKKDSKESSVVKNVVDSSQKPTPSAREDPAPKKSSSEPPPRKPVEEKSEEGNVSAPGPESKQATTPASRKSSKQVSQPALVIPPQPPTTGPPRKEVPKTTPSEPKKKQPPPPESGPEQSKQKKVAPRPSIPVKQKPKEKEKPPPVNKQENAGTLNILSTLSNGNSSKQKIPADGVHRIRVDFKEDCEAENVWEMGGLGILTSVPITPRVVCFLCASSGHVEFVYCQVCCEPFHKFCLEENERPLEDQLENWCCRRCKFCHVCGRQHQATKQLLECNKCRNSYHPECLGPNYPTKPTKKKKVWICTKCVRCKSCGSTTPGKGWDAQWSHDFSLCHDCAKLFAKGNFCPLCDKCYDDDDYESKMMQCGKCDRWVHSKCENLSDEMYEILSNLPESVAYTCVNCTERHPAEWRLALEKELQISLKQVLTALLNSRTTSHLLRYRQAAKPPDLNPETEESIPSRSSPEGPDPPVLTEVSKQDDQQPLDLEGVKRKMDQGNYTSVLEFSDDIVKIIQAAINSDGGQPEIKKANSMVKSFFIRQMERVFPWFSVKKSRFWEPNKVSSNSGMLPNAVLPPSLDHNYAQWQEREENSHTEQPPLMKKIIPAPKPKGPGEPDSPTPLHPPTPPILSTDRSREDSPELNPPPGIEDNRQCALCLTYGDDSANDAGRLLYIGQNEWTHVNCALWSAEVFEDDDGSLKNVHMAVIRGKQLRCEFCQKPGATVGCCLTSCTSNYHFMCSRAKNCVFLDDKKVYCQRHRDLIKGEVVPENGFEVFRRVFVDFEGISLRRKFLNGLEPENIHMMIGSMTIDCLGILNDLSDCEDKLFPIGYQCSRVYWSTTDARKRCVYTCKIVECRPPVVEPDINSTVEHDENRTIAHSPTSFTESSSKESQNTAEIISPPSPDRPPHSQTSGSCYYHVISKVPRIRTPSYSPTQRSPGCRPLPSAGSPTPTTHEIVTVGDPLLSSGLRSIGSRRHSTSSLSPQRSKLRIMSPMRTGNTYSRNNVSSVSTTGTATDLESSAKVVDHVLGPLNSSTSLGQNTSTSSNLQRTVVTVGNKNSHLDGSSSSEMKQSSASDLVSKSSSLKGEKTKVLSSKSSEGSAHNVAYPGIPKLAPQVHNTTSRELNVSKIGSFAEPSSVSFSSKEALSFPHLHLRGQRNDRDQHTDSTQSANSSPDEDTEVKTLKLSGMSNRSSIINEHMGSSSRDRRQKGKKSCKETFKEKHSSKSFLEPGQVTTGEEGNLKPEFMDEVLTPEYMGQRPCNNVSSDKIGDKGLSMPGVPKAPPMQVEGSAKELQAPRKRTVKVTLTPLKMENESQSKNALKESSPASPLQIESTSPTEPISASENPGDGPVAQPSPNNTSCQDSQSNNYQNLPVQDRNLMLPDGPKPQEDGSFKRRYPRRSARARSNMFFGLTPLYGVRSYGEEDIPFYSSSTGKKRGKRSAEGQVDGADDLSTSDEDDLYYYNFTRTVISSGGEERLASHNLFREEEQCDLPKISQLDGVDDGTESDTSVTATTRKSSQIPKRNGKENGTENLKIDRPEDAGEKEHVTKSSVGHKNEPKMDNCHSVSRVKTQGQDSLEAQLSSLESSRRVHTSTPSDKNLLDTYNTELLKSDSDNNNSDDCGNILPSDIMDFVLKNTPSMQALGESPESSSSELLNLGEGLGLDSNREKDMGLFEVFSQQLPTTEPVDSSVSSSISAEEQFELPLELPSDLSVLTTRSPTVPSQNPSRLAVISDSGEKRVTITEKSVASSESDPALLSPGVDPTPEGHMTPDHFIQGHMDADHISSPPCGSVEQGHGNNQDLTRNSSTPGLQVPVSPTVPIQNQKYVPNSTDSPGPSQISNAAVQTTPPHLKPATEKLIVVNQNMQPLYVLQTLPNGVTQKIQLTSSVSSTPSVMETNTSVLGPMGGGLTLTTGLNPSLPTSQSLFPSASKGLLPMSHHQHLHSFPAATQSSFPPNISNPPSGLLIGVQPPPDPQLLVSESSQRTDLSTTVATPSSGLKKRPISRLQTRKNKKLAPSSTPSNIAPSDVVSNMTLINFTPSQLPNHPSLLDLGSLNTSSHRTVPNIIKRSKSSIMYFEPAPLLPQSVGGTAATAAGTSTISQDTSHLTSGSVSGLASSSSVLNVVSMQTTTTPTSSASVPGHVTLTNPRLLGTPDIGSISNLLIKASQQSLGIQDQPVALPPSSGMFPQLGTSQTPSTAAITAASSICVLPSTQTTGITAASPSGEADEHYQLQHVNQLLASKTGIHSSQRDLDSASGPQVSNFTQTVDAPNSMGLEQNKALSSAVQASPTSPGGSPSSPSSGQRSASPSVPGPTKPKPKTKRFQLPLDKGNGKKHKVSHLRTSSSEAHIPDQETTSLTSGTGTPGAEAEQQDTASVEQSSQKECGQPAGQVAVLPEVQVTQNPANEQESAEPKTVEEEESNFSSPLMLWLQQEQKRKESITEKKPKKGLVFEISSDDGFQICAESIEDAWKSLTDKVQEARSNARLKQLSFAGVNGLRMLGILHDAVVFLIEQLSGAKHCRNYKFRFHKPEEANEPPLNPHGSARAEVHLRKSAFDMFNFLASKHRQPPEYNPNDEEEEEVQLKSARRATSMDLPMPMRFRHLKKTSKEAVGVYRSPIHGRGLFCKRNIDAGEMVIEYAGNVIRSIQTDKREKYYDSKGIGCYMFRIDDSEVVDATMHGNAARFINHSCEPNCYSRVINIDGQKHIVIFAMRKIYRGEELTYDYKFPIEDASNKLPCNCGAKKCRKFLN

target: Histone-lysine N-methyltransferase 2A (Homo sapiens) (UniProt Q03164); assay: qHTS Fluorescence Polarization Assay for Inhibitors of MLL CXXC domain - DNA interaction; settings: MLL-CXXC / FITC-HOXA9 DNA fluorescence polarization; activity change, negative = inhibition: at 115 µM (top of the series)
Text: NIH Chemical Genomics Center [NCGC] NIH Molecular Libraries Probe Production centers Network [MLPCN] MLPCN Grant: DA027717-01A1 Assay Submitter (PI): John Bushweller NCGC Assay Overview: The MLL (Mixed Lineage Luekemia) gene is involved in chromosomal translocation that results in either acute lymphoid leukemia (ALL) or acute myeloid leukemia (AML). Chromasomal translocation of MLL gene is responsible for the fusion of N-terminal MLL to more than 60 different partner genes in frame. Many of the MLL partner genes contain transcription activation domains or function as transcriptional activators. Despite the heterogeneity of fusion partners, the N-terminus of MLL fusion proteins always consists of the N-terminal menin binding motif and the CXXC domain. The MLL-CXXC domain specifically recognizes unmethylated CpG sequences of the HOX-A gene. Disruption of the MLL-CXXC and HOX-A gene interaction leads to down regulation of HOX-A gene expression and may potentially reverse leukemogenesis. We have miniaturized and optimized an in-vitro assay to screen for inhibitors of the MLL-CXXC domain and HOX-A DNA interaction, which could have utility in MLL fusion leukemias.
The affinity purified MLL-CXXC domain, unlabeled HOX-A9 DNA strand, fluorescein (FLSN) labeled HOX-A9 DNA strand were kindly supplied by the laboratory of Dr. John Bushweller, University of Virginia. All reagents were stored in single use aliquots at -80C. Assay Reagents: Assay buffer: 50 mM TRIS-HCl pH 7.5, 50 mM NaCl, 1 mM DTT. Add 0.05% BSA prior to reaction setup. Assay Procedure: 1.Dispense 1 ul of a 7 uM MLL-CXXC solution prepared in assay buffer into column 1-48. 2.Transfer 23 nl of compounds and unlabeled HOX-A9 per well. 3.Incubate for 5 minutes at ambient. 4.Dispense 1ul of a 50 nM FLSN-HOX-A9 solution prepared in assay buffer into columns 1-48 5.Centrifuge for 30 seconds at 1000 RPM. 6.Incubate for 30 minutes at ambient. 7.Read using the Envision reader fluorescent polarization protocol.
Potency is the fitted concentration of half-maximal effect.

Compound	Potency	activity change, negative = inhibition
Cc1ccc(N/C=C2/Sc3ccccc3NC2=O)cc1	inconclusive: 44.7 µM [fluorescent, side channel, partial curve]	–
CC1=NN(c2ccc(C)cc2)C(=O)/C1=C/c1ccc(-c2cc([N+](=O)[O-])ccc2O)o1	inconclusive: 31.6 µM [inhibitor, partial curve]	–
Cc1ccc(C(c2c(O)nc3n(c2=O)CCS3)c2c(O)nc3n(c2=O)CCS3)cc1	inconclusive: 39.8 µM [inhibitor, single point]	–
CCN1/C(=C2\C(=O)N(C)C(=S)N2C)C=Cc2cc(OC)ccc21	inconclusive: 50.1 µM [quencher, single point]	–
COC(=O)Cc1c(C)c2ccc(OCC(=O)N(C)C3CCS(=O)(=O)C3)cc2oc1=O (configuration not stated)	inconclusive: 50.1 µM [quencher, side channel, single point]	–
Cc1cc2nc3c(=O)[nH]c(=O)[nH]c3nc2c([N+](=O)[O-])c1N	inconclusive: 31.6 µM [fluorescent, side channel, partial curve]	–
NCCNC(=O)c1c(NC(=O)c2ccccc2)sc2c1CCCC2	inconclusive: 35.5 µM [quencher, partial curve]	–
CCc1ccc(/C=C2/SC(=S)N(CCC(=O)Nc3cccc(C(=O)O)c3)C2=O)cc1	inconclusive: 8.91 µM [fluorescent, side channel, single point]	–
CNc1ccc(/C=C(\CCC(=O)O)c2nc3ccccc3s2)cc1[N+](=O)[O-]	inconclusive: 89.1 µM [inhibitor, single point]	–
CCOc1cc(N(CC)CC)ccc1/C=C(/C#N)c1nc2ccccc2[nH]1	inconclusive: 44.7 µM [fluorescent, side channel, partial curve]	–
CC(=O)NN1CCc2cc3ccc(C)cc3nc21	inconclusive: 10 µM [inhibitor, single point]	–
S=C(Nc1ccc(N2CCOCC2)cc1)Nc1ccc2nc(-c3ccco3)c(-c3ccco3)nc2c1	inconclusive: 89.1 µM [inhibitor, single point]	–
NC(N)=Nc1nc2ccc([N+](=O)[O-])cc2[nH]1	–	inactive: 11.2%
N#C/C(=C\c1ccc(N2CCOCC2)o1)C(=O)Nc1ccc(O)cc1	inconclusive: 17.8 µM [fluorescent, side channel, full curve]	–
CCC(=O)Nc1nnc(-c2ccccn2)o1	–	inactive: 3.65%
Cc1occc1C(=O)/C(C#N)=C/c1ccc(O)c(Br)c1	inconclusive: 39.8 µM [fluorescent, partial curve]	–
Cc1sc2ncnc(OCC(=O)N3CCN(C(=O)c4ccco4)CC3)c2c1C	inconclusive: 22.4 µM [fluorescent, side channel, partial curve, poor fit]	–
CCN(CC)c1ccc2cc(/C(N)=N/NC(=O)c3cccs3)c(=O)oc2c1	inconclusive: 5.62 µM [fluorescent, side channel, full curve]	–
COc1cc(SC)ccc1C(=O)Nc1c(C)cccc1C	inconclusive: 89.1 µM [quencher, side channel, single point]	–
FC(F)(F)c1cc(-c2ccccc2)nc2ncnn12	–	inactive: 6.87%
COc1ccc(C(=O)Nc2ccccc2-c2ccccc2)cc1Cl	inconclusive: 14.1 µM [fluorescent, side channel, single point]	–

One compound at a time, as listed above. Order of values: Potency | activity change, negative = inhibition
CCN1/C(=C2\C(=O)N(C)C(=S)N2C)C=Cc2cc(OC)ccc21 is entered as inconclusive: 50.1 µM [quencher, single point] | –
S=C(Nc1ccc(N2CCOCC2)cc1)Nc1ccc2nc(-c3ccco3)c(-c3ccco3)nc2c1 is entered as inconclusive: 89.1 µM [inhibitor, single point] | –
N#C/C(=C\c1ccc(N2CCOCC2)o1)C(=O)Nc1ccc(O)cc1 is entered as inconclusive: 17.8 µM [fluorescent, side channel, full curve] | –

Following part

Compound	Potency	activity change, negative = inhibition
CN(C)c1ccc(/C=N/NC(=O)c2ccc3c(c2)OCCO3)cc1	inconclusive: 10 µM [fluorescent, side channel, single point]	–
CCOC(=O)C1=C(C)Nc2ccc(C)cc2S1	inconclusive: 70.8 µM [fluorescent, side channel, single point]	–
O=C(CBr)c1ccc([N+](=O)[O-])c(CS(=O)(=O)c2ccc(Cl)cc2)c1	inconclusive: 12.6 µM [fluorescent, side channel, single point]	–
COc1ccc(S(=O)(=O)Nc2cc(S(=O)(=O)c3ccccc3)c(O)cc2C)cc1	–	inactive: 11.5%
CC(Nc1nc(N2CCCC2)nc2ccccc12)c1ccccc1 (configuration not stated)	inconclusive: 12.6 µM [quencher, side channel, partial curve]	–
COc1cc(NCCCC(C)N)c2ncccc2c1 (configuration not stated)	–	inactive: 2.93%
O=Cc1cn(-c2ccccc2)nc1-c1ccncc1	inconclusive: 35.5 µM [inhibitor, single point]	–
O=C(Nc1ccc(O)c(-c2nc3ccccc3s2)c1)C1=COCCO1	inconclusive: 70.8 µM [inhibitor, single point]	–
CC(C)c1ccc(NC(=O)C(c2ccccc2)N2CC(=O)Nc3ccccc32)cc1 (configuration not stated)	–	inactive: 24.9%
S=c1[nH]c2cc(-c3ccccc3)ccc2o1	inconclusive: 35.5 µM [inhibitor, partial curve]	–
CCOC(=O)CCSc1nc(C)c2cc(C)c(C)cc2n1	–	inactive: 26.7%
CSc1ncccc1C(=O)NCC(=O)Nc1ccc(F)c(F)c1	inconclusive: 6.31 µM [activator, full curve, poor fit]	–
CC1CCN(C(=O)NC(=O)c2ccc(Cl)cc2)CC1	inconclusive: 89.1 µM [quencher, side channel, single point]	–
Cc1nn(C)c(Cl)c1CN1CCN(CCC(C)C)C(CCO)C1 (configuration not stated)	inconclusive: 70.8 µM [inhibitor, single point]	–
Cc1cc(NC(=O)c2ccccc2Cl)no1	–	inactive: -4.58%
O=C(COc1ccccc1F)Nc1ccc(S(=O)(=O)Nc2nccs2)cc1	–	inactive: -3.54%
COc1cccc(-n2c([S-])c(C(=O)Nc3ccc(C(F)(F)F)cc3)[n+]3ccccc23)c1	inconclusive: 8.91 µM [fluorescent, side channel, single point]	–
O=C(NCc1ccco1)C1CCN(C(=O)c2ccc([N+](=O)[O-])cc2)CC1	inconclusive: 56.2 µM [quencher, side channel, single point]	–
CC(=O)NC(CC(=O)NC1CCCCCC1)c1ccccc1 (configuration not stated)	inconclusive: 63.1 µM [inhibitor, single point]	–
CCOc1ccc(-c2nn(-c3ccccc3)cc2/C=C2\SC(=S)N(C3CCS(=O)(=O)C3)C2=O)cc1 (configuration not stated)	inconclusive: 31.6 µM [fluorescent, side channel, partial curve]	–
CCOc1cc(/C=C(\C#N)C(=O)Nc2ccc(S(N)(=O)=O)cc2)ccc1OCCN1CCOCC1	inconclusive: 7.08 µM [fluorescent, side channel, full curve]	–

Compound	Potency	activity change, negative = inhibition
CC1CCCCN1C(=O)/C=C/c1ccccc1[N+](=O)[O-] (configuration not stated)	inconclusive: 1.26 µM [fluorescent, side channel, full curve, poor fit]	–
O=C1OCC/C1=C\c1ccc(O)cc1	inconclusive: 35.5 µM [fluorescent, single point]	–
O=C(O)c1ccccc1/C=N/NC(=O)c1cc(-c2ccco2)nc2ccccc12	–	inactive: 2.98%
O=C(O)CCC(=O)N1CCN(S(=O)(=O)c2cccs2)CC1	–	inactive: 13.3%
Oc1ccc(CN2CCCCC2)c2cccnc12	–	inactive: 2.39%
CCOc1ccc(C2C(C(=O)C3CC3)N3C=C(C#N)C=CC3C2(C#N)C#N)cc1 (configuration not stated)	inconclusive: 70.8 µM [fluorescent, side channel, single point]	–
Cc1cc(-c2ccccc2)c2c3c(c(-c4ccccc4)n2n1)c(=O)n(C)c(=O)n3C	active: 50.1 µM	–
Cc1ccc(CS(=O)(=O)c2ncc(Cl)c(C(=O)Nc3nnc(C)s3)n2)cc1	inconclusive: 8.91 µM [inhibitor, single point]	–
COc1ccc(-c2nc(C(=O)NCCCN3CCOCC3)cc3c2[nH]c2ccccc23)cc1OC	inconclusive: 50.1 µM [quencher, side channel, single point]	–
Cc1ccc(N2CC(C(=O)Nc3cccnc3)CC2=O)cc1Cl (configuration not stated)	inconclusive: 63.1 µM [quencher, side channel, single point]	–
COC(=O)C[n+]1cccc2ccccc21	inconclusive: 56.2 µM [fluorescent, side channel, partial curve]	–
COc1ccc(CNC(=O)c2cc3c(=O)n4ccccc4nc3n(Cc3cccnc3)c2=N)cc1	inconclusive: 50.1 µM [fluorescent, side channel, single point]	–
COc1ccccc1NS(=O)(=O)c1cc(NC(=O)c2cnccn2)ccc1N1CCOCC1	–	inactive: -7.8%
CNC(=O)Nc1ccc(S(N)(=O)=O)cc1	inconclusive: 35.5 µM [fluorescent, side channel, partial curve]	–
Cc1ccc(OCC(=O)Nc2ccc(S(=O)(=O)N3CCOCC3)cc2)c(Br)c1	inconclusive: 14.1 µM [fluorescent, side channel, single point]	–
Cc1ccc(C)c(N(CC(=O)N2CCCC2)S(C)(=O)=O)c1	inconclusive: 0.355 µM [fluorescent, side channel, full curve]	–
CCN1C(C)=C(C)S/C1=C1\SC(=S)N(NC(C)=O)C1=O	–	inactive: 15.4%
COc1ccc(N2CCN(C(C)C(=O)N3CCCC3)CC2)cc1 (configuration not stated)	inconclusive: 31.6 µM [inhibitor, single point]	–
CC(=O)O[C@@]12CO[C@@H]1C[C@H](O)[C@@]1(C)C(=O)[C@H](O)C3=C(C)[C@@H](OC(=O)C(O)[C@@H](NC(=O)OC(C)(C)C)c4ccccc4)C[C@@](O)([C@@H](OC(=O)c4ccccc4)[C@H]21)C3(C)C (some centres not stated)	–	inactive: 9.72%
CCCCc1nnc(SCC(=O)Nc2nccs2)n1CC	inconclusive: 7.08 µM [fluorescent, side channel, single point]	–
